In doi:10.1101/2022.07.02.498517:
Results are given in words; binding and its absence hold for the method and conditions named. Binding seen in cells or lysates may run through a third protein. Here binding means that the protein was enriched with, or labelled near, the bait; the list need not be complete. Tags and fused reporters may be left off the sequences shown.

B1: Atp19 (subunit k) (protein, UniProt P81451 1-68)
chain: MGAAYHFMGKAIPPHQLAIGTLGLLGLLVVPNPFKSAKPKTVDIKTDNKDEEKFIENYLKKHSEKQDA
B2: Mco10 (Mitochondrial class one protein of 10 kDa) (protein, UniProt Q3E824 1-90)
chain: MGAAYKVFGKTVQPHVLAISTFIATAAVASYFTTKPKTKNEGKNSSALSQQKSGESSNSDAMGKDDDVVKSIEGFLNDLEKDTRQDTKAN
B3: Atp15 (subunit ε) (protein, UniProt P21306 1-62)
chain: MSAWRKAGISYAAYLNVAAQAIRSSLKTELQTASVLNRSQTDAFYTQYKNGTAASEPTPITK
B4: Atp21 (subunit e) (protein, UniProt P81449 1-96)
chain: MSTVNVLRYSALGLGLFFGFRNDMILKCNAKKKEEQAQYEEKLKLVEEAKKEYAKLHPVVTPKDVPANASFNLEDPNIDFERVILNAVESLKEAST
B5: Atp16 (subunit δ) (protein, UniProt Q12165 23-160)
chain: AEAAAASSGLKLQFALPHETLYSGSEVTQVNLPAKSGRIGVLANHVPTVEQLLPGVVEVMEGSNSKKFFISGGFATVQPDSQLCVTAIEAFPLESFSQENIKNLLAEAKKNVSSSDAREAAEAAIQVEVLENLQSVLK
B6: Atp20 (subunit g) (protein, UniProt Q12233 1-115)
chain: MLSRIQNYTSGLVSKANLLSSKALYYGKVGAEISKQIYLKEGLQPPTVAQFKSVYSNLYKQSLNFALKPTEVLSCLKNIQKNELLKYGAYGIQLIGFYSVGEIIGRRKLVGYKHH
B7: Atp18 (subunit i) (protein, UniProt P81450 1-59)
chain: MLKRFPTPILKVYWPFFVAGAAVYYGMSKAADLSSNTKEFINDPRNPRFAKGGKFVEVD
B8: ATPase activity inhibitor protein Inh1 (protein, UniProt P01097 23-85)
chain: SEGSTGTPRGSGSEDSFVKRERATEDFFVRQREKEQLRHLKEQLEKQRKKIDSLENKIDSMTK

Each molecule was assayed against T1, Atp6 subunit C-terminally tagged by HA-6xHis (S. cerevisiae) (UniProt P00854) (assay: affinity purification with mass spectrometry).
T1 sequence: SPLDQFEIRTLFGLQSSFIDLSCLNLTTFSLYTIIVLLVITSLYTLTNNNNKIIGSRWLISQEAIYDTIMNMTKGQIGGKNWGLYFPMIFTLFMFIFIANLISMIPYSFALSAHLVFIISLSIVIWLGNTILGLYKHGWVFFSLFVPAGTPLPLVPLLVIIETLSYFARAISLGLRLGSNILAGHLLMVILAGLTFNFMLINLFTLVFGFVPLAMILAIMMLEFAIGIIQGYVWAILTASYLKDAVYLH

binding, binds:
Cyt C (S. cerevisiae)
B1
B2
B3
B4
B5
B6
B7
B8
